± gives the standard error. Many entries were measured with a wide error.
B1: glmS ribozyme (parent)
chain: AUAAAAGCGCCAGAACUACAGAAAUGUAGUUGACGAGGAGGAGGUUUAUCGAAUUUUCGGCGGAUGCCUCCAAA

Variants of: B1
Test: self-cleavage kobs at 40 uM GlcN6P; higher = faster cleavage; RNA array
Conditions: with glucosamine-6-phosphate
Method in brief: (§1)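 Tiles of sequenced MiSeq chips were imaged over ~14 h at 37 °C. On them, barcoded ribozyme variants had been transcribed in situ by E. coli RNA polymerase and were tracked via a hybridised Cy3 probe while glucosamine-6-phosphate (40 μM to 10 mM) in HEPES/KCl/Mg(OAc)2 buffer flowed in. Per-tile medians, normalised to baseline and to non-cleaving reference variants, were fit to one- or two-exponential decays for kobs, and weighted Michaelis–Menten fits gave kcat and KM.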

| Variant | self-cleavage kobs at 40 uM GlcN6P [s⁻¹] |
| --- | --- |
| A14G C16A G29C A53G | 3.44e-05 ± 1.9e-05 |
| G35U A42U U45G U56G | 3.12e-05 ± 3.1e-05 |
| G32A A52G C70A | 4.8e-05 ± 3.3e-05 |
| U69G C70A | 2.21e-05 ± 1.4e-05 |
| U69G C70U | 1.9e-05 ± 1.3e-05 |
| A14U C68G C70U | 2.54e-05 ± 2e-05 |
| G35C G37A C68G | 3.74e-05 ± 2.8e-05 |
| U56A U69G | 1.69e-05 ± 1.4e-05 |
| C16U A53U U65G | 2.79e-05 ± 2.6e-05 |
| G51U U69G | 1.63e-05 ± 1.3e-05 |
| G29C U69G | 1.56e-05 ± 1.5e-05 |
| A36C G51A C71G | 5.84e-05 ± 3.3e-05 |
| C11U C67U | 2.43e-05 ± 1.3e-05 |
| C50U A53G C71G | 3.36e-05 ± 2.4e-05 |
| A15C A53U C71G | 2.88e-05 ± 2.1e-05 |
| C16U G32U | 2.52e-05 ± 1.3e-05 |
| A52U U57A C67U | 3.07e-05 ± 2.5e-05 |
| A14C C50G | 2.09e-05 ± 1.6e-05 |
| C16A G35U C68U | 5.06e-05 ± 3e-05 |
| U49A G66U C68G | 2.79e-05 ± 2.5e-05 |

| Variant | self-cleavage kobs at 40 uM GlcN6P [s⁻¹] |
| --- | --- |
| C34G U47G C58A C68A | 2.75e-05 ± 2.6e-05 |
| C16U U69G | 2.12e-05 ± 1.3e-05 |
| C11A G13U A53G C67U C68G | 3.46e-05 ± 2.7e-05 |
| G29U C67A U69A | 3.01e-05 ± 1.8e-05 |
| U31C U56G C67U | 2.44e-05 ± 1.7e-05 |
| A64G C71A | 1.64e-05 ± 1.5e-05 |
| U56A G66U | 1.39e-05 ± 8.7e-06 |
| A36U C50G U57C | 3.97e-05 ± 2.6e-05 |
| A6G C68G C70U | 3.2e-05 ± 2.6e-05 |
| A36U C58G C70U | 4.08e-05 ± 2.9e-05 |
| G32U U69A | 2.74e-05 ± 1.8e-05 |
| A15G A53U U57G C68G | 4.05e-05 ± 3.4e-05 |
| C50G U65C | 2.9e-05 ± 1.9e-05 |
| C8A U69A | 2.7e-05 ± 2.3e-05 |
| A15C G29A C50U C70G | 3.37e-05 ± 2.6e-05 |
| C50G A53U | 3.87e-05 ± 2.6e-05 |
| C50G A53G | 0.000932 ± 0.00083 |
| G32C U54A C68G | 3.17e-05 ± 2.9e-05 |
| C16U G62U U69A | 3.03e-05 ± 2.5e-05 |
| G44U U55A | 2.12e-05 ± 1.9e-05 |

| Variant | self-cleavage kobs at 40 uM GlcN6P [s⁻¹] |
| --- | --- |
| U47A U69G | 1.94e-05 ± 1.8e-05 |
| A52G A53G | 1.39e-05 ± 1.2e-05 |
| C11U U55C | 4.06e-05 ± 2.1e-05 |
| C50A C70G | 1.7e-05 ± 9.8e-06 |
| A52C U57A C67G U69A | 2.66e-05 ± 2.1e-05 |
| A14G A15G U47C U55A C70G | 3.78e-05 ± 2.6e-05 |
| C11U A12G A14G G26U | 2.79e-05 ± 2.5e-05 |
| C10A A39G C61A C68A | 5.23e-05 ± 2.8e-05 |
| C67A C68U | 1.79e-05 ± 1e-05 |
| U31C U47G C70G | 2.61e-05 ± 2.2e-05 |
| C8G G29U U69G | 7.94e-05 ± 4.1e-05 |
| A14C G40U A53G | 1.66e-05 ± 1.4e-05 |
| U47G G59U C61U C68A | 3e-05 ± 1.9e-05 |
| C61U C68G U69G | 2.91e-05 ± 2.4e-05 |
| U30C G59C C61U C70A | 4.23e-05 ± 2.5e-05 |
| G41C U54G | 2.21e-05 ± 1.6e-05 |
| C10U U47G A52U U69A | 2.79e-05 ± 1.5e-05 |
| C16U C34U G62A C68G | 3.45e-05 ± 2.8e-05 |
| A12U A14G G41A A42G | 4.94e-05 ± 3.1e-05 |

Rewritten field by field: part of the list above
G32C U54A C68G
  self-cleavage kobs at 40 uM GlcN6P [s⁻¹] = 3.17e-05 ± 2.9e-05
C16U G62U U69A
  self-cleavage kobs at 40 uM GlcN6P [s⁻¹] = 3.03e-05 ± 2.5e-05
G44U U55A
  self-cleavage kobs at 40 uM GlcN6P [s⁻¹] = 2.12e-05 ± 1.9e-05
U47A U69G
  self-cleavage kobs at 40 uM GlcN6P [s⁻¹] = 1.94e-05 ± 1.8e-05

Variants of: B1
Test: self-cleavage kobs at 10000 uM GlcN6P; higher = faster cleavage; RNA array
Conditions: with glucosamine-6-phosphate
Method in brief: as §1

| Variant | self-cleavage kobs at 10000 uM GlcN6P [s⁻¹] |
| --- | --- |
| U69G C70A | 1.82e-05 ± 9.9e-06 |
| A36C G51A C71G | 2.71e-05 ± 2.2e-05 |
| A14C C50G | 1.54e-05 ± 1.5e-05 |
| C10A C70U | 1.69e-05 ± 1.1e-05 |
| U49A G66U C68G | 2.32e-05 ± 1.9e-05 |
| C34G U47G C58A C68A | 3.14e-05 ± 1.8e-05 |
| C50G U65C | 2.66e-05 ± 1.5e-05 |
| C50G A53G | 6.35e-05 ± 4.4e-05 |
| C50A C70G | 1.16e-05 ± 1.2e-05 |
| C10A A39G C61A C68A | 2.34e-05 ± 2.1e-05 |
| U47G G59U C61U C68A | 2.23e-05 ± 1.6e-05 |

Variants of: B1
Test: self-cleavage kobs at 640 uM GlcN6P; higher = faster cleavage; RNA array
Conditions: with glucosamine-6-phosphate
Method in brief: as §1

| Variant | self-cleavage kobs at 640 uM GlcN6P [s⁻¹] |
| --- | --- |
| A14U C68G C70U | 4e-05 ± 3.6e-05 |
| G7U C10G C68G | 4.7e-05 ± 3.6e-05 |
| C10A C50A | 2.01e-05 ± 1.9e-05 |
| C10A C70U | 0.000589 ± 0.00038 |
| G7U A14U C16G U49C C68G | 5.27e-05 ± 2.7e-05 |
| A6G C68G C70U | 3.11e-05 ± 2.4e-05 |
| A6U A36G A52G C70G | 5.24e-05 ± 2.9e-05 |
| C50G A53U | 3.02e-05 ± 2.1e-05 |
| C50G A53G | 0.000466 ± 0.00023 |
| C10U G29U C67U C68U | 0.000116 ± 8.5e-05 |
| A6C G7U A14U G37U U69C | 4.28e-05 ± 3.9e-05 |
| C10U A15C U46G C68G | 6.98e-05 ± 3.6e-05 |
| G9A G32A A33U C67G C68U | 0.00185 ± 0.0012 |
| C10U U47G A52U U69A | 3.76e-05 ± 2e-05 |

Variants of: B1
Test: self-cleavage kobs at 160 uM GlcN6P; higher = faster cleavage; RNA array
Conditions: with glucosamine-6-phosphate
Method in brief: as §1

| Variant | self-cleavage kobs at 160 uM GlcN6P [s⁻¹] |
| --- | --- |
| A14U C68G C70U | 3.25e-05 ± 2.1e-05 |
| C10A C70U | 0.00017 ± 0.00013 |
| G32U U69A | 3.55e-05 ± 1.9e-05 |
| C50G A53G | 0.000303 ± 0.00019 |
| G44U U55A | 2.78e-05 ± 1.8e-05 |
| U47A U69G | 5.61e-05 ± 2.9e-05 |
| G41C U54G | 2.99e-05 ± 1.6e-05 |
| C16U C34U G62A C68G | 3.96e-05 ± 2.7e-05 |

Variants of: B1
Test: self-cleavage kobs at 2500 uM GlcN6P; higher = faster cleavage; RNA array
Conditions: with glucosamine-6-phosphate
Method in brief: as §1

| Variant | self-cleavage kobs at 2500 uM GlcN6P [s⁻¹] |
| --- | --- |
| G7U C10G C68G | 3.53e-05 ± 3.4e-05 |
| C10A C50A | 2.71e-05 ± 2e-05 |
| C50G A53U | 2.63e-05 ± 2.5e-05 |
| C10U G29U C67U C68U | 2.61e-05 ± 2.2e-05 |

— the supplement of paper PMC7125110
